# Measured values from the supplement of paper PMC8256030.
# Where “and” joins values, the source holds several entries; their conditions need not be identical. Identical values can stand only once. The list shows a part of the results. This data set is noisy: repeats of one test often differ as much as different tests do.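 HEK293T cells were given each compound shortly before transfection with a reporter in which red mCherry is followed by the SARS-CoV-2 frameshift element and then GFP in the −1 frame, so GFP appears only after frameshifting.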
# Test system: HEK293T
# Assay: percent viability (nuclei count) relative to control; higher = more viable cells
# Conditions: 10 µM; 24 h
row,Compound,percent viability
1,Cc1ccccc1OCC(O)CN1CC=CCC1 (stereo not given) [tolpronine],131%
2,O=P(O)(O)OC(Cn1cncn1)(Cn1cncn1)c1ccc(F)cc1F [fosfluconazole],182%
3,CC(O)(P(=O)(O)O)P(=O)(O)O [Etidronate],55.8%
4,O=C(CNC(=O)c1ccc(Cl)cc1)NO [benurestat],319%
5,O=C(/C=C/c1c(C(=O)O)[nH]c2cc(Cl)cc(Cl)c12)Nc1ccccc1 [gavestinel],93.1%
6,CCN(CC)CC(=O)Oc1ccc(NC(C)=O)cc1 [propacetamol],219%
7,C=CCN1CCCC1CNC(=O)c1cc(S(N)(=O)=O)cc(OC)c1OC (stereo not given) [veralipride],72.6%
8,CCOC(CN1CCN(CC(C)C(=O)c2ccccc2)CC1)c1ccccc1 (stereo not given) [eprazinone],323%
9,CC(C)NC[C@H](O)COc1ccc(O)cc1 [prenalterol],204%
10,N#C[C@@H]1C[C@@H]2C[C@@H]2N1C(=O)[C@@H](N)C12CC3CC(CC(O)(C3)C1)C2,130%
11,CC(C)N1CCN(c2ccc(OCC3COC(Cn4cncn4)(c4ccc(Cl)cc4Cl)O3)cc2)CC1 (stereo not given) [terconazole],95.7%
12,O=C(O)Cc1ccc(-c2ccccc2)cc1 [felbinac],166%
13,O=c1cc[nH]c(=O)[nH]1,337%
14,O=C(NCC1CCCCN1)c1cc(OCC(F)(F)F)ccc1OCC(F)(F)F (stereo not given) [Flecainide acetate],346%
15,CC[C@H]1OC(=O)[C@H](C)C(=O)[C@H](C)[C@@H](O[C@@H]2O[C@H](C)C[C@H](N(C)C)[C@H]2O)[C@](C)(OC)C[C@@H](C)C(=O)[C@H](C)[C@H]2N(CCCCn3cnc(-c4cccnc4)c3)C(=O)O[C@]12C [Ketek],317%
16,C#CCN[C@@H]1CCc2ccccc21 [rasagiline],133%
17,NC(=O)NS(=O)(=O)c1ccc(N)cc1 [sulfacarbamide],272%
18,CCOC(=O)C1=C[C@@H](OC(CC)CC)[C@H](NC(C)=O)[C@@H](N)C1,202%
19,O=C(O)CCC(=O)Nc1ccc(S(=O)(=O)Nc2nccs2)cc1 [succinylsulfathiazole],368%
20,CC(=O)[C@H]1CC[C@H]2[C@@H]3CCC4=CC(=O)CC[C@]4(C)[C@H]3CC[C@]12C [progesterone],231% and 104%

row,Compound,percent viability
1,CCn1cc(C(=O)O)c(=O)c2ccc(-c3ccncc3)cc21 [rosoxacin],314%
2,CN1CCC[C@@H]1CCO[C@](C)(c1ccccc1)c1ccc(Cl)cc1,173%
3,CN1CC(=O)N2[C@H](c3ccc4c(c3)OCO4)c3[nH]c4ccccc4c3C[C@@H]2C1=O [tadalafil],60.2%
4,CC(C)Cc1ccc(CC(=O)O)cc1 [ibufenac],189%
5,CCCCC1=NC2(CCCC2)C(=O)N1Cc1ccc(-c2ccccc2-c2nnn[nH]2)cc1 [irbesartan],363%
6,CO[C@@H]1[C@@H](OC)[C@H](C)[C@@](O)(CC(=O)O)O[C@H]1[C@H](C)[C@H]1O[C@@]2(CC[C@@](C)([C@H]3CC[C@@](C)([C@@H]4O[C@@H]([C@H]5O[C@](C)(O)[C@H](C)C[C@@H]5C)C[C@@H]4O[C@@H]4C[C@H](OC)[C@@H](OC)[C@H](C)O4)O3)O2)C[C@H](O)[C@H]1C [maduramicin],9.44%
7,CC(=O)O[C@]1(C(C)=O)CC[C@H]2[C@@H]3C[C@H](C)C4=CC(=O)CC[C@]4(C)[C@H]3CC[C@@]21C [Medroxyprogesterone 17-Acetate],209%
8,Cc1cc(O)cc(C)c1Cl,127%
9,C#C[C@]1(OC(C)=O)CC[C@H]2[C@@H]3CCC4=C[C@@H](OC(C)=O)CC[C@@H]4[C@H]3CC[C@@]21C,254%
10,C=COCC(F)(F)F [fluroxene],180%
11,C[C@H]1COc2c(C3(N)CC3)c(F)cc3c(=O)c(C(=O)O)cn1c23 [Pazufloxacin],226%
12,COc1cc(CNC(=O)CCCC/C=C\C(C)C)ccc1O [zucapsaicin],158%
13,CNC1COc2ccccc2C(O)C1 (stereo not given) [exepanol],199%
14,NNc1nncc2ccccc12 [hydralazine],144%
15,CC1(C)OC(=O)NC1=O [dimethadione],97.8%
16,Cc1cc(CC(=O)O)n(C)c1C(=O)c1ccc(Cl)cc1 [zomepirac],162%
17,COC(=O)Nc1nc2cc(C(=O)c3ccccc3)ccc2[nH]1 [mebendazole],14.8%
18,NCC(O)CC(=O)O (stereo not given),258%
19,Clc1ccc(OCC2=NCCc3ccccc32)cc1 [famotine],234%
20,CC(C)(C)NC[C@H](O)COc1cccc2c1CCCC2=O [levobunolol],261% and 95.4%
